For some of these results: No signal at the amounts used counts as a negative. For some of these results: Protein sequences can lack the tags named with them. For some of these results: The exact form of at least one protein or probe is not confirmed.
Experiments:
B5 deaminase = test system: T1, B5 deaminase; assay: binding assay; conditions: 5mC at one CpG; 42 C 1 h, enzyme:substrate 40:1; C to T linear with methylated fraction; purified recombinant protein; protein details: N-terminal His6 (pET28), E. coli C2566
T1 sequence: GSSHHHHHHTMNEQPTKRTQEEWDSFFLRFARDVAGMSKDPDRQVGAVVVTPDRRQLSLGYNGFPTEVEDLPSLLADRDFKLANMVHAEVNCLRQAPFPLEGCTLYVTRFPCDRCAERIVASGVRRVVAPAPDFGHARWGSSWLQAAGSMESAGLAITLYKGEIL

B4 deaminase = assay: activity assay; conditions: not detected; purified recombinant protein; protein details: immobilized on solid support; label: 5'-FAM; single-stranded DNA; variant of FAM 5mC oligo 1
E12 deaminase = test system: T2, E12 deaminase; assay: activity assay; conditions: not detected; purified recombinant protein; protein details: immobilized on solid support; label: 5'-FAM; single-stranded DNA; variant of FAM 5mC oligo 1
T2 sequence (limits assumed): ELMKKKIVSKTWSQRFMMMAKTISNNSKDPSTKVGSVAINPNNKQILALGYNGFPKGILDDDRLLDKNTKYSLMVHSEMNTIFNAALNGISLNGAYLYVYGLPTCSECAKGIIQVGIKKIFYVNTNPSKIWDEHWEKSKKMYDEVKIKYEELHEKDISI

F12 deaminase = test system: T3, F12 deaminase; assay: activity assay; conditions: not detected; purified recombinant protein; protein details: immobilized on solid support; label: 5'-FAM; single-stranded DNA; variant of FAM 5mC oligo 1
T3 sequence (limits assumed): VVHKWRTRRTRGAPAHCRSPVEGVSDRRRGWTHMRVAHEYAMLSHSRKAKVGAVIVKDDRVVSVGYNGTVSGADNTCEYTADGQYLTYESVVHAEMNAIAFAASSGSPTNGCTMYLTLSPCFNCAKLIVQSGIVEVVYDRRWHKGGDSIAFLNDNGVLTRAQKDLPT

H2 deaminase = test system: T4, H2 deaminase; assay: activity assay; conditions: not detected; purified recombinant protein; protein details: immobilized on solid support; label: 5'-FAM; single-stranded DNA; variant of FAM 5mC oligo 1
T4 sequence (limits assumed): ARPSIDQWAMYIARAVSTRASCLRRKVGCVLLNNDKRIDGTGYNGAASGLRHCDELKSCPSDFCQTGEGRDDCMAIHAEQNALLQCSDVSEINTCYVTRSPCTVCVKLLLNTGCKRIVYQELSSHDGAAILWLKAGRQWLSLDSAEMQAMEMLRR

PRW294 = test system: T5, PRW294; assay: activity assay; conditions: 1 h; purified recombinant protein; label: 5'-FAM; single-stranded DNA; variant of FAM 5mC oligo 1
T5 sequence: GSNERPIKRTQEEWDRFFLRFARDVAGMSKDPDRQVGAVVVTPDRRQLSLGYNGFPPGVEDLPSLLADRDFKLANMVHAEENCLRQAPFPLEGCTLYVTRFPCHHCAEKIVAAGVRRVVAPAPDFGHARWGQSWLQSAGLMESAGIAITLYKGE

PRW311 = test system: T6, PRW311; assay: activity assay; conditions: 1 h; purified recombinant protein; label: 5'-FAM; single-stranded DNA; variant of FAM 5mC oligo 1
T6 sequence: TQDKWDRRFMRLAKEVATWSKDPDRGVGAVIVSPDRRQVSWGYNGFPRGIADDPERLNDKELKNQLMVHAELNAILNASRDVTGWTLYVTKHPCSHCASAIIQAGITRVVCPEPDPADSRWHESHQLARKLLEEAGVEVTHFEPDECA

| Sequence | binding result (B5 deaminase) | activity on this sequence (B4 deaminase) | activity on this sequence (E12 deaminase) | activity on this sequence (F12 deaminase) | activity on this sequence (H2 deaminase) | activity on this sequence (% deamination) (PRW294) | activity on this sequence (% deamination) (PRW311) |
| --- | --- | --- | --- | --- | --- | --- | --- |
| GGACACAGGGGTTGCCCAGGCTACAGATCCGGGTTCAGGCCCAGCCGTGGGGACTGTTCACCTCTGAGAGGGCAGCCCTGCCCCGCGGCCCTGGCCCTGCCCTGCACCCGGCTGGGTCTCATCTGACACGC (double strand) [F1/R1 methylated CpG] | binds |  |  |  |  |  |  |
| ATACACCGATGCAGAACTCATGGGCTTACGC [FAM C oligo 4] |  | not active | not active | not active | not active | < 1 | < 1 |

— patent publication US20250115953, “Methylcytosine-Selective Deaminases and Uses Thereof” (New England Biolabs, Inc., published 2025)
